# Laboratory results reported in the supplement of paper PMC7666118.
# Protein sequences, listed by entry. Tags and fused reporters are not part of them. Lines headed by an entry give the natural chain unless they say otherwise; changes in a name come on top.
# UniProt P23470: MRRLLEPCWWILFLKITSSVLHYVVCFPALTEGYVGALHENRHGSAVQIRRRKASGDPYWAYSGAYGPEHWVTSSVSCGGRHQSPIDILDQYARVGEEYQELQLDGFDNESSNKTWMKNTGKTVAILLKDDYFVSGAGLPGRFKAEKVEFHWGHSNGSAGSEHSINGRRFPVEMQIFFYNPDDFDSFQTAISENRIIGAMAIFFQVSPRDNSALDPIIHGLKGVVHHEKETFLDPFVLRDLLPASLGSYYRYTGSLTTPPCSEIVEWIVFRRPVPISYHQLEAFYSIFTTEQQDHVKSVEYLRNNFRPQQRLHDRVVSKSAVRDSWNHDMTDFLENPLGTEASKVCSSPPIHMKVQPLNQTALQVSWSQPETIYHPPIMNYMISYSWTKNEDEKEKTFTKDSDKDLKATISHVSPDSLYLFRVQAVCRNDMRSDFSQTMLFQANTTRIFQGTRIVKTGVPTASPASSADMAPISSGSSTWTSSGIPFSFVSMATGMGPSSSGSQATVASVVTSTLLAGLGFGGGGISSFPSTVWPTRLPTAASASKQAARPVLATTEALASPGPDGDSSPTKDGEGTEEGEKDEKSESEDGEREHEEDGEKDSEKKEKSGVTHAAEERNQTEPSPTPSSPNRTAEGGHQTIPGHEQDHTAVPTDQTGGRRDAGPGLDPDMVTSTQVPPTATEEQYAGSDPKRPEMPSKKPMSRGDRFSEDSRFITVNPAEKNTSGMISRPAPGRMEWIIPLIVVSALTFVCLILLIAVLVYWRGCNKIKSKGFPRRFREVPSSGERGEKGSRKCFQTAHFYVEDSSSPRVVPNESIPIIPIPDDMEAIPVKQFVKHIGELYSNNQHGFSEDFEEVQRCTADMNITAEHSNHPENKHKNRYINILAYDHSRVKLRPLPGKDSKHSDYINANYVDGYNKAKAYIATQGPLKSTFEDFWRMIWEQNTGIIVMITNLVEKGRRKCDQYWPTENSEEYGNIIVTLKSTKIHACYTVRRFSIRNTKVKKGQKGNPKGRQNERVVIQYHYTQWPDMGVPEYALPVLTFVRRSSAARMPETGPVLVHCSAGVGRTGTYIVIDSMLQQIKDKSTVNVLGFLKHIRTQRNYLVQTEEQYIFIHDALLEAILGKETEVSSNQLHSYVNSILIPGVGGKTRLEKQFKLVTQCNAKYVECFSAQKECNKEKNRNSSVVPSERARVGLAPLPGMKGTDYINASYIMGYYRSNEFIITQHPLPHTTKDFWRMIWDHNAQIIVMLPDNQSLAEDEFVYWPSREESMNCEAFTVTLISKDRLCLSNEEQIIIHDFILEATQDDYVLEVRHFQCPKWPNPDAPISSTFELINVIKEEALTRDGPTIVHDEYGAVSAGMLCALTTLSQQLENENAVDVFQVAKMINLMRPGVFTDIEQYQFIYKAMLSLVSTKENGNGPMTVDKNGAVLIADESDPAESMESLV
# UniProt Q9Y256: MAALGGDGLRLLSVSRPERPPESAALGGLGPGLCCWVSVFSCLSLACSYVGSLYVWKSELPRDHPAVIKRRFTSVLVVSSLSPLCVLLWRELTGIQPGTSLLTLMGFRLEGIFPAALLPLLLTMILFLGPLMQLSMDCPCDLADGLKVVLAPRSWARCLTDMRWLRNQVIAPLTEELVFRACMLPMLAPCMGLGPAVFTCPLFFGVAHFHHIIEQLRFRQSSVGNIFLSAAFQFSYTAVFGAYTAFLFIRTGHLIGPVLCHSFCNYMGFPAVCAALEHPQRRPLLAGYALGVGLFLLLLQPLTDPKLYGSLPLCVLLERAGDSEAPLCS
# UniProt P61224: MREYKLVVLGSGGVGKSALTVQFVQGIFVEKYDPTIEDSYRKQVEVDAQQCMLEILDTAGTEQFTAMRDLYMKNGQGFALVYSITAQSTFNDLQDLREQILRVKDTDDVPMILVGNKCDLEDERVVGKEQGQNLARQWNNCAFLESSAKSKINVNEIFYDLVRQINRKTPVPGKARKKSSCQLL
# UniProt Q9UI14, whole entry: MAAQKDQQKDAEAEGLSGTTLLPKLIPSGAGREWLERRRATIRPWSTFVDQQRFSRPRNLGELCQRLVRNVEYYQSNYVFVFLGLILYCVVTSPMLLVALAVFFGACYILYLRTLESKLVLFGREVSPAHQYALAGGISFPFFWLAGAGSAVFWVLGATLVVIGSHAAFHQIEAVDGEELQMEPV
# UniProt Q14671: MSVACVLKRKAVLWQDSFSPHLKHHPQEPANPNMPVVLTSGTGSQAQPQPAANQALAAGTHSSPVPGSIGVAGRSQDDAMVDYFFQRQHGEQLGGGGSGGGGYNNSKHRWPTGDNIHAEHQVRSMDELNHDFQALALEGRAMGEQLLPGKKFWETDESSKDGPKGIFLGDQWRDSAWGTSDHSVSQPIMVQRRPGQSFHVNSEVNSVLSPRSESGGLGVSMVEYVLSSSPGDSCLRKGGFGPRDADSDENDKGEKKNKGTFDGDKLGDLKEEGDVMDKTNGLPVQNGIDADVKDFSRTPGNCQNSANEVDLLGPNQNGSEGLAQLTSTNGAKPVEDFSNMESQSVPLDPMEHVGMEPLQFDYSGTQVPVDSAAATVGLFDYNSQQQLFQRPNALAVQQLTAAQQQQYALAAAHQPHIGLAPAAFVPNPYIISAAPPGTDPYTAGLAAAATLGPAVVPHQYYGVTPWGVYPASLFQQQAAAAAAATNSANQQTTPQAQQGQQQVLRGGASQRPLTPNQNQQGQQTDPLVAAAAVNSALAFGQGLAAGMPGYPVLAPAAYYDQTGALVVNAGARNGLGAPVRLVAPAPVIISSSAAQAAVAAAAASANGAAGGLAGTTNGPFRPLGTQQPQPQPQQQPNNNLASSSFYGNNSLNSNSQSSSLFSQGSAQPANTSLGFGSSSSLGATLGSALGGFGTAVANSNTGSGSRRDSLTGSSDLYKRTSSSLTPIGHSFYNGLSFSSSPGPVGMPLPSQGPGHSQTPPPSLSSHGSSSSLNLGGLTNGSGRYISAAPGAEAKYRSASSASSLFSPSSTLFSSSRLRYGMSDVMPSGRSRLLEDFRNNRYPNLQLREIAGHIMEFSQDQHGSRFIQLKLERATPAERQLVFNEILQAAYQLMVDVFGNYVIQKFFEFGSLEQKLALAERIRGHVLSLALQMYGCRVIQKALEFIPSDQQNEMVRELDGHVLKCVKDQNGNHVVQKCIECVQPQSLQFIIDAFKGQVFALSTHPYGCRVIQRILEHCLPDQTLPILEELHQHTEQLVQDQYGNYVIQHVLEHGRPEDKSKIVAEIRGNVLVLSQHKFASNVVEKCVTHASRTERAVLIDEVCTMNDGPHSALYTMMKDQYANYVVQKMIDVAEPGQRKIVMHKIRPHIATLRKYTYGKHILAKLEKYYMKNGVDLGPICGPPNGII
# UniProt Q96PK6: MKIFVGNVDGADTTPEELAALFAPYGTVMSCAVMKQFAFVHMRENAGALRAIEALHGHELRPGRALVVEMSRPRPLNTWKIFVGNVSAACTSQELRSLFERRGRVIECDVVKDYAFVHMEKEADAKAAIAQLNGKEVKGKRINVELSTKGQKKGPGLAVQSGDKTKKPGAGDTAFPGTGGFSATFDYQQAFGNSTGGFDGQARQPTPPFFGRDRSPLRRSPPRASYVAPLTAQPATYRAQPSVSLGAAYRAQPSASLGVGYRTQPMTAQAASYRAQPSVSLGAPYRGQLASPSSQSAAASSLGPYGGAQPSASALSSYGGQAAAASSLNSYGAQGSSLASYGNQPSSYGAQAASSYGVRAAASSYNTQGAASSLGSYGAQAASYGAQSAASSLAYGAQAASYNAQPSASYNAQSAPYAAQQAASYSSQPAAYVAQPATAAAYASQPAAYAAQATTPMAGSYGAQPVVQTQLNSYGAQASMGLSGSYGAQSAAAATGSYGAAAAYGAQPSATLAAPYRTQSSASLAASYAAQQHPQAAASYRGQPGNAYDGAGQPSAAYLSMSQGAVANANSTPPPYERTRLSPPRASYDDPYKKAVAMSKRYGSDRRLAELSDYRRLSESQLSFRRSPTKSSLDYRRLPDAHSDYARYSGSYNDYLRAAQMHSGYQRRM
# UniProt Q9H477: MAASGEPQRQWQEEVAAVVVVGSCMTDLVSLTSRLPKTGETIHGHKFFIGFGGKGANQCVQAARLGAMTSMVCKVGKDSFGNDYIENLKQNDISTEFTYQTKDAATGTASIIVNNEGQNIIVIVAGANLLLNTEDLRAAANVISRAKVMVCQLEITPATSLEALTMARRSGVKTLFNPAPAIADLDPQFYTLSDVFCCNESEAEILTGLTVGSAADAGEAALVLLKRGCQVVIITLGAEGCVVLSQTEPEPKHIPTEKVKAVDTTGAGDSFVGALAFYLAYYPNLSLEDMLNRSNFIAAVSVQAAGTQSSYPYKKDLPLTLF
# UniProt P78332: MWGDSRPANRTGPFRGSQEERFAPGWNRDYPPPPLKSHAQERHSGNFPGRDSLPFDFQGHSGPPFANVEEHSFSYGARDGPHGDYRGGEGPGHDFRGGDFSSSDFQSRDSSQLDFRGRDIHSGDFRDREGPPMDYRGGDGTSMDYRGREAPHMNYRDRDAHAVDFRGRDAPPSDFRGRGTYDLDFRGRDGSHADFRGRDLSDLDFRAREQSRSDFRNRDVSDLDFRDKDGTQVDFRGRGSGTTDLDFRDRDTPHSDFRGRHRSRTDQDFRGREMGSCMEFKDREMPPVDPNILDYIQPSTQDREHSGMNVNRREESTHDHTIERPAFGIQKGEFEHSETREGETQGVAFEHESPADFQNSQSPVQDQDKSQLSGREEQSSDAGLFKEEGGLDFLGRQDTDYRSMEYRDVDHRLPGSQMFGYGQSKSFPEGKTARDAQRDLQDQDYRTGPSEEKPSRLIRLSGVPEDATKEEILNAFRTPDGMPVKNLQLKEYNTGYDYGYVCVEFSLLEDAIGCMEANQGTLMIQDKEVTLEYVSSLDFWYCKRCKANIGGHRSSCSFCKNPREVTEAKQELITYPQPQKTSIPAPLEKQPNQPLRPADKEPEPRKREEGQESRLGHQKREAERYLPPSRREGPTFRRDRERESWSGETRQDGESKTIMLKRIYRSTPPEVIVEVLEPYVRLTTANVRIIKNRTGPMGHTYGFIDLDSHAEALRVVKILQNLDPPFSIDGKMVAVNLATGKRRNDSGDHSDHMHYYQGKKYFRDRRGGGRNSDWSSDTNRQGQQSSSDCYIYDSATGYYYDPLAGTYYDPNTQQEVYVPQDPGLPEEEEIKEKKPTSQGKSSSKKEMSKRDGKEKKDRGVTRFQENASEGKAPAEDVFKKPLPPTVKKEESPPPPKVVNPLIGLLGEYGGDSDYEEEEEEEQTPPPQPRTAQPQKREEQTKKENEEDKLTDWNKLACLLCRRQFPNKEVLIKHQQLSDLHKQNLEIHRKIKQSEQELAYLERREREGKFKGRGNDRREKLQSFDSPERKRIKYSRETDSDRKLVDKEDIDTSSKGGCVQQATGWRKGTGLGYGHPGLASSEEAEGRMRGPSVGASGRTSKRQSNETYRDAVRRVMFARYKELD
# UniProt Q5TC82: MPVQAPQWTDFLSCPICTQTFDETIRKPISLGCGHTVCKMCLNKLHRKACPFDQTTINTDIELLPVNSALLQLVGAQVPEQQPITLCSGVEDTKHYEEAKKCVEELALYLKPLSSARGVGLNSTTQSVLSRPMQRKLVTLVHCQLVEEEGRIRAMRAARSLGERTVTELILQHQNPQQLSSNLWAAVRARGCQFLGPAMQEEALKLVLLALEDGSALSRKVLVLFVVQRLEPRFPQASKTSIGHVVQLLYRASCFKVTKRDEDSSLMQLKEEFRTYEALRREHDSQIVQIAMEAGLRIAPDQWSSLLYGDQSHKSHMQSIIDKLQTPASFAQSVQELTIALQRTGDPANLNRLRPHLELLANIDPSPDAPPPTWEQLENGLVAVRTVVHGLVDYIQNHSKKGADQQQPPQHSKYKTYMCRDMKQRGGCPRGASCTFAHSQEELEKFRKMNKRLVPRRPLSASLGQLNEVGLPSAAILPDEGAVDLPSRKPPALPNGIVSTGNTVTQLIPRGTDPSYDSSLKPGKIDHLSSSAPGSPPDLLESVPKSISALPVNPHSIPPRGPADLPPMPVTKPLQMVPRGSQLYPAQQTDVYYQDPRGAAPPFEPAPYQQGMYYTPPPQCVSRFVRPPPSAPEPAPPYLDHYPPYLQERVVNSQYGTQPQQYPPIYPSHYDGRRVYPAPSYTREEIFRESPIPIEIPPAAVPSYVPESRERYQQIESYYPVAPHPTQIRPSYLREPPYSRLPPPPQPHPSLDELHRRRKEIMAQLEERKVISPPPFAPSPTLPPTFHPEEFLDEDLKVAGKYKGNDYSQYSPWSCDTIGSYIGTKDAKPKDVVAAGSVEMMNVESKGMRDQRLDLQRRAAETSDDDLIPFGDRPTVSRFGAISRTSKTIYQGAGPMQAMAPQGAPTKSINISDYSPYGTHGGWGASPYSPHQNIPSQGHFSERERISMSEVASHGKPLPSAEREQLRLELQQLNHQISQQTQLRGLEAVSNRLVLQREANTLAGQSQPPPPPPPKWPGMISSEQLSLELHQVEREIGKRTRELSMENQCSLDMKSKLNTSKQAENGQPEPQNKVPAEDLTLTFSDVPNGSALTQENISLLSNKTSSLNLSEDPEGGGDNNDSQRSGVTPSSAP
# This is one part of the list.
# Compound: COc1ccc(Cn2ccc3cc(C)c(C(=O)NO)cc32)cc1
# Assay: dose-dependent thermal stabilisation call (2D-TPP, DLPTP, 10% FDR) (binary (1 = stabilised)); higher = stabilised by the compound
# Conditions: system: HL-60 intact cells; concentration range 0.04-10 µM
# Method: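 2D thermal proteome profiling in intact HL-60 cells treated with BRD-3811 (0, 0.04, 0.29, 2, 10 uM) for 90 min at 37 C, then heated 3 min at one of 12 temperatures (42-63.9 C). Soluble protein was quantified by TMT10 MS. The value is the DLPTP call of the paper: dose-dependent thermal stabilisation over all temperatures at 10% FDR (F-test of a dose-response against a flat model); one experiment, one call per tested protein.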
row,Target,dose-dependent thermal stabilisation call
1,RBCK1 (UniProt Q9BYM8),inactive: 0
2,QARS,inactive: 0
3,PTPRG (UniProt P23470),inactive: 0
4,RCE1 (UniProt Q9Y256),inactive: 0
5,RBM26 (UniProt Q5T8P6),inactive: 0
6,RCOR3 (UniProt Q9P2K3),inactive: 0
7,RG9MTD2 (UniProt Q8TBZ6),inactive: 0
8,RAP2A (UniProt P10114),inactive: 0
9,RFXAP (UniProt O00287),inactive: 0
10,RALA (UniProt P11233),inactive: 0
11,RAP1B (UniProt P61224),inactive: 0
12,RAB7L1 (UniProt O14966),inactive: 0
13,RIF1 (UniProt Q5UIP0),inactive: 0
14,RFWD2 (UniProt Q8NHY2),inactive: 0
15,RAB28 (UniProt P51157),inactive: 0
16,QSOX1 (UniProt O00391),inactive: 0
17,RABAC1 (UniProt Q9UI14),inactive: 0
18,RNASEH2B (UniProt Q5TBB1),inactive: 0
19,RHOXF2 (UniProt Q9BQY4),inactive: 0
20,PUM1 (UniProt Q14671),inactive: 0

row,Target,dose-dependent thermal stabilisation call
1,PTPRC (UniProt P08575),inactive: 0
2,QPCTL (UniProt Q9NXS2),inactive: 0
3,RBM14 (UniProt Q96PK6),inactive: 0
4,REEP5 (UniProt Q00765),inactive: 0
5,RAB8B (UniProt Q92930),inactive: 0
6,RAB6A (UniProt P20340),inactive: 0
7,PUS7L (UniProt Q9H0K6),inactive: 0
8,RBKS (UniProt Q9H477),inactive: 0
9,RBX1 (UniProt P62877),inactive: 0
10,RGP1 (UniProt Q92546),inactive: 0
11,RAPGEF1 (UniProt Q13905),inactive: 0
12,RBM6 (UniProt P78332),inactive: 0
13,PUS3 (UniProt Q9BZE2),inactive: 0
14,PTPRCAP (UniProt Q14761),inactive: 0
15,RABGEF1 (UniProt Q9UJ41),inactive: 0
16,RC3H1 (UniProt Q5TC82),inactive: 0
17,RASAL3 (UniProt Q86YV0),inactive: 0
18,RANBP10 (UniProt Q6VN20),inactive: 0
19,RMI1 (UniProt Q9H9A7),inactive: 0
20,RFX2 (UniProt P48378),inactive: 0

# Another view of some results above.
row | Target | dose-dependent thermal stabilisation call
1 | PTPRC (UniProt P08575) | inactive: 0
2 | QPCTL (UniProt Q9NXS2) | inactive: 0
